Reference: PubChem BioAssay AID1159578 (Peter MacCallum Cancer Centre, 2015)
The whole screen tested about 18,000 reagents; shown is an unselected part. Over the whole deposit, about 1,030 (5.7%) are marked active. 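Inactive calls also include pools with fewer than 3300 nuclei, whose migration was not assessed.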 The raw values are shown without normalisation. Entries without a mark were called inactive.

Assay: 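Genome-wide hunt for genes controlling movement of lymphatic endothelial cells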 (primary screen)
Cell system: human lymphatic endothelial cells
Knock-down reagent: siRNA pool against human genes, 40 nM
Duration: 48 h after transfection
Measured: 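Cells stained with dye and imaged after a scratch; covered wound area and nuclei counted, duplicates averaged, migration set against mock wells and turned into a robust z-score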
Scale: migration robust z-score: higher = faster migration into the scratch; migration relative to mock: higher = more scratch area covered than mock; nuclei per well: higher = more cells in the well
Rule for the call: 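Migration changed when robust z exceeds 2 or falls below -2 and mean nuclei number is at least 3300; otherwise not called changed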
Meaning of the calls: active = migration changed; inactive = no migration change, or too few cells

The opening 6 records, to show the layout:
gene knocked down	migration robust z-score	migration class with cell-count check	migration relative to mock	nuclei per well, duplicate mean
USP45 (ubiquitin specific peptidase 45)	-0.47	migration z between -2 and 2; enough cells	0.72	5360
DAB2IP (DAB2 interacting protein)	-0.86	migration z between -2 and 2; enough cells	0.66	4632
MEIS3 (Meis homeobox 3)	-0.56	migration z between -2 and 2; enough cells	0.74	5942
MEOX2 (mesenchyme homeobox 2)	0.26	migration z between -2 and 2; enough cells	0.86	5954
ITGA3 (integrin subunit alpha 3)	-0.8	migration z between -2 and 2; enough cells	0.65	4509
TMEM202 (transmembrane protein 202)	-0.6	migration z between -2 and 2; enough cells	0.73	4321

The list itself, from the start:
gene knocked down	migration robust z-score	migration class with cell-count check	migration relative to mock	nuclei per well, duplicate mean
USP45 (ubiquitin specific peptidase 45)	-0.47	migration z between -2 and 2; enough cells	0.72	5360
DAB2IP (DAB2 interacting protein)	-0.86	migration z between -2 and 2; enough cells	0.66	4632
MEIS3 (Meis homeobox 3)	-0.56	migration z between -2 and 2; enough cells	0.74	5942
MEOX2 (mesenchyme homeobox 2)	0.26	migration z between -2 and 2; enough cells	0.86	5954
ITGA3 (integrin subunit alpha 3)	-0.8	migration z between -2 and 2; enough cells	0.65	4509
TMEM202 (transmembrane protein 202)	-0.6	migration z between -2 and 2; enough cells	0.73	4321
KY (kyphoscoliosis peptidase)	-0.86	migration z between -2 and 2; enough cells	0.66	5200
PPM1G (protein phosphatase, Mg2+/Mn2+ dependent 1G)	1.38	migration z between -2 and 2; enough cells	1.07	5252
CLK3 (CDC like kinase 3)	-1.09	migration z between -2 and 2; enough cells	0.6	4726
CAMK2A (calcium/calmodulin dependent protein kinase II alpha)	-0.88	migration z between -2 and 2; enough cells	0.64	4603
PLSCR1 (phospholipid scramblase 1)	-0.94	migration z between -2 and 2; enough cells	0.62	5605
CHIT1 (chitinase 1)	0.7	migration z between -2 and 2; enough cells	0.94	4544
RTP5 (receptor transporter protein 5 (putative))	1.54	migration z between -2 and 2; enough cells	1.29	5186
UBFD1 (ubiquitin family domain containing 1)	0.67	migration z between -2 and 2; enough cells	1.06	5622
DSP (desmoplakin)	0.8	migration z between -2 and 2; enough cells	1.09	5396
CSF1 (colony stimulating factor 1)	0.02	migration z between -2 and 2; enough cells	0.81	6098
LRRC15 (leucine rich repeat containing 15)	-1.4	under 3300 nuclei; migration not judged	0.52	2517
PLPP3 (phospholipid phosphatase 3)	-2.83 (active)	migration z below -2; enough cells	0.26	6098
KRT77 (keratin 77)	0.16	migration z between -2 and 2; enough cells	0.92	6359
METTL6 (methyltransferase 6, tRNA N3-cytidine)	0.42	migration z between -2 and 2; enough cells	0.88	6250
CLEC9A (C-type lectin domain containing 9A)	0.5	migration z between -2 and 2; enough cells	1.02	5648
CFAP298 (cilia and flagella associated protein 298)	0.19	migration z between -2 and 2; enough cells	0.94	4932
ENOSF1 (enolase superfamily member 1)	-0.43	migration z between -2 and 2; enough cells	0.78	6628
SEC22C (SEC22 homolog C, vesicle trafficking protein)	-2.12 (active)	migration z below -2; enough cells	0.34	5249
CDC25C (cell division cycle 25C)	-0.02	migration z between -2 and 2; enough cells	0.8	5068
MREG (melanoregulin)	-0.16	migration z between -2 and 2; enough cells	0.84	5536
APOBR (apolipoprotein B receptor)	0.28	migration z between -2 and 2; enough cells	0.96	5542
TCP10L (t-complex 10 like)	0.52	migration z between -2 and 2; enough cells	1.02	6194
CCDC88A (coiled-coil and HOOK domain protein 88A)	1	migration z between -2 and 2; enough cells	1.15	5228
ARHGAP28 (Rho GTPase activating protein 28)	-1.37	migration z between -2 and 2; enough cells	0.53	6337
URI1 (URI1 prefoldin like chaperone)	1.27	migration z between -2 and 2; enough cells	1.21	5972
TMED9 (transmembrane p24 trafficking protein 9)	1.04	migration z between -2 and 2; enough cells	1.15	5033
CRYBB2 (crystallin beta B2)	1.41	migration z between -2 and 2; enough cells	1.25	5814
SLC43A2	-1.95	migration z between -2 and 2; enough cells	0.37	4498
AKR1C6P (aldo-keto reductase family 1 member C6, pseudogene)	-2.52 (active)	migration z below -2; enough cells	0.32	3568
AGFG1 (ArfGAP with FG repeats 1)	-1.24	migration z between -2 and 2; enough cells	0.56	3781
ELAVL2 (ELAV like RNA binding protein 2)	1.09	migration z between -2 and 2; enough cells	1.17	5455
TUT7 (terminal uridylyl transferase 7)	0.6	migration z between -2 and 2; enough cells	1.04	6166
IER3IP1 (immediate early response 3 interacting protein 1)	-0.01	migration z between -2 and 2; enough cells	0.88	6784
OR51F2 (olfactory receptor family 51 subfamily F member 2)	-0.43	migration z between -2 and 2; enough cells	0.77	6026
TPST1 (tyrosylprotein sulfotransferase 1)	0.29	migration z between -2 and 2; enough cells	0.86	4168
PHF19 (PHD finger protein 19)	0.68	migration z between -2 and 2; enough cells	0.94	5534
BSG (basigin (Ok blood group))	0.04	migration z between -2 and 2; enough cells	0.9	5119
IFITM5 (interferon induced transmembrane protein 5)	-1.54	migration z between -2 and 2; enough cells	0.49	6595
YES1 (YES proto-oncogene 1, Src family tyrosine kinase)	-0.86	migration z between -2 and 2; enough cells	0.64	5080
KRTAP19-3 (keratin associated protein 19-3)	-0.65	migration z between -2 and 2; enough cells	0.72	5156
NR4A1 (nuclear receptor subfamily 4 group A member 1)	-0.23	migration z between -2 and 2; enough cells	0.76	6978
TSEN2 (tRNA splicing endonuclease subunit 2)	0.91	migration z between -2 and 2; enough cells	0.98	4092
WFIKKN2	-1.06	migration z between -2 and 2; enough cells	0.61	6088
A2ML1 (alpha-2-macroglobulin like 1)	0.24	migration z between -2 and 2; enough cells	0.94	5554
UBE2T (ubiquitin conjugating enzyme E2 T)	-1.09	migration z between -2 and 2; enough cells	0.59	5220
MAP1S (microtubule associated protein 1S)	-1.46	under 3300 nuclei; migration not judged	0.52	2981
ARV1 (ARV1 fatty acid homeostasis modulator)	-0.03	migration z between -2 and 2; enough cells	0.87	4978
SKAP1 (src kinase associated phosphoprotein 1)	-0.06	migration z between -2 and 2; enough cells	0.8	4746
GUCY1B1 (guanylate cyclase 1 soluble subunit beta 1)	-1.71	migration z between -2 and 2; enough cells	0.48	4704
RAD54L (RAD54 like)	0.88	migration z between -2 and 2; enough cells	0.98	6728
NIBAN1 (niban apoptosis regulator 1)	0.37	migration z between -2 and 2; enough cells	0.99	5014
